In the supplement of paper PMC4683952:
Structures can show the parent of a compound that is named as a salt. The list shows a part of the results. Rule as the data show it: active = 2.5 or more and inactive = the rest. This data set is noisy: repeats of one test often differ as much as different tests do.

System: Lgr5 (MarsCy1-Lgr5-EGFP, U2OS)
Test: cell-surface Lgr5 expression (SCi1 fluorescence, background-subtracted) relative to WT control (fold of WT control); higher = more Lgr5 at the plasma membrane
Details: U2OS MarsCy1-Lgr5-EGFP stable; treatment time: overnight; library: Prestwick; 20 µM

| Structure (SMILES) | cell-surface Lgr5 expression |
| --- | --- |
| COc1cc(=O)n(C)c2c(OCC(O)C(C)(C)O)cccc12 (stereo not given) [Foliosidine] | inactive: 2.01 |
| COC1=CC(=O)C[C@@H](C)[C@]12Oc1c(Cl)c(OC)cc(OC)c1C2=O [Griseofulvin] | inactive: 1.48 |
| CN(C)CCCC1(c2ccc(F)cc2)OCc2cc(C#N)ccc21 (stereo not given) [Citalopram Hydrobromide] | inactive: 2.2 |
| O=C(O)CNC(=O)C(CS)Cc1ccccc1 (stereo not given) [Thiorphan] | active: 2.79 |
| CC(C)(C)NCC(O)c1ccc(O)c(CO)c1 (stereo not given) [Salbutamol] | inactive: 1.89 |
| Cc1c(OCC(F)(F)F)ccnc1C[S+]([O-])c1nc2ccccc2[nH]1 (stereo not given) [Lansoprazole] | inactive: 1.3 |
| COc1c(O)cc2c(c1O)[C@@H]1O[C@H](CO)[C@@H](O)[C@H](O)[C@H]1OC2=O [Bergenin monohydrate] | active: 2.65 |
| O=C(NCC1CCCCN1)c1cc(OCC(F)(F)F)ccc1OCC(F)(F)F (stereo not given) [Flecainide acetate] | active: 2.55 |
| CC1CCc2cc(F)cc3c(=O)c(C(=O)O)cn1c23 (stereo not given) [Flumequine] | inactive: 1.4 |
| CCCCOc1ccc(OCCCN2CCOCC2)cc1 [Pramoxine hydrochloride] | inactive: 1.92 |
| COc1cc(N)c(Cl)cc1C(=O)NC1CCN(Cc2ccccc2)CC1 [Clebopride maleate] | inactive: 0.807 |
| O=C(c1ccc(OCCN2CCCCC2)cc1)c1c(-c2ccc(O)cc2)sc2cc(O)ccc12 [Raloxifene hydrochloride] | inactive: 2.29 |
| CC(CN1c2ccccc2Sc2ccccc21)N(C)C (stereo not given) [Promethazine hydrochloride] | inactive: 1.59 |
| NS(=O)(=O)c1cc2c(cc1C(F)(F)F)NC(Cc1ccccc1)NS2(=O)=O (stereo not given) [Bendroflumethiazide] | inactive: 2.37 |
| CCOC(=O)C1=C(C)NC(C)=C(C(=O)OC)C1c1cccc([N+](=O)[O-])c1 (stereo not given) [Nitrendipine] | inactive: 1.71 |
| CCn1cc(C(=O)O)c(=O)c2cc(F)c(N3CCNCC3)cc21 [Norfloxacin] | inactive: 1.01 |
| CC(C)(Oc1ccc(C2CC2(Cl)Cl)cc1)C(=O)O (stereo not given) [Ciprofibrate] | inactive: 1.07 |
| CC1=C(C(=O)O)N2C(=O)[C@@H](NC(=O)[C@H](N)c3ccc(O)cc3)[C@H]2SC1 [Cefadroxil] | inactive: 1.88 |
| CNC1(C)C2CCC(C2)C1(C)C (stereo not given) [Mecamylamine hydrochloride] | inactive: 1.49 |
| CCC(C)(CN(C)C)OC(=O)c1ccccc1 (stereo not given) [Amyleine hydrochloride] | inactive: 1.31 |

3 entries from above, reformatted:
Structure (SMILES)	cell-surface Lgr5 expression
CC(CN1c2ccccc2Sc2ccccc21)N(C)C (stereo not given) [Promethazine hydrochloride]	inactive: 1.59
CCOC(=O)C1=C(C)NC(C)=C(C(=O)OC)C1c1cccc([N+](=O)[O-])c1 (stereo not given) [Nitrendipine]	inactive: 1.71
CCC(C)(CN(C)C)OC(=O)c1ccccc1 (stereo not given) [Amyleine hydrochloride]	inactive: 1.31
